Results taken from PubChem BioAssay AID504847 (National Center for Advancing Translational Sciences (NCATS), 2011).
Hit rate of the full screen: of about 400,000 compounds, about 3,700 (0.93%) were called active. Inconclusive results, whose numbers are uncertain, are shown with a selection of clear calls. Calls come from the whole dose curve; as a rule, active = well fitted inhibition curve with a large enough effect; inconclusive = small, poorly fitted or top-dose-only effect, or another doubt; inactive = no such curve, though single readings can be large or run the other way. A potency beside an inconclusive call is a rough fit, not a confirmed value.

Chains of the proteins cited; added tags and fusions are not shown. Lines headed by an entry give the natural chain unless they say otherwise; changes in a name come on top.
UniProt P11473: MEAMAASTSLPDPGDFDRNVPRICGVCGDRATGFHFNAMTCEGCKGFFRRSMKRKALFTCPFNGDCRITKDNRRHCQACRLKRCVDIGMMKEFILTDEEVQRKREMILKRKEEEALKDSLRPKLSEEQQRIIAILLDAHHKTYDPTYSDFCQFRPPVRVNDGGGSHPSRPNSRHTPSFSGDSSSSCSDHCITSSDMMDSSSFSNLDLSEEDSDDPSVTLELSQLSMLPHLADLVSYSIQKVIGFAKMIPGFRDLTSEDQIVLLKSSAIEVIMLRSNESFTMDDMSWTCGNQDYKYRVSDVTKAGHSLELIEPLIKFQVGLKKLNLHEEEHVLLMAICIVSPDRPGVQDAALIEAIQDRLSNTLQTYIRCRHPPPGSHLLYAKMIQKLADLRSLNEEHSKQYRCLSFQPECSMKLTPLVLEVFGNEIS

Target: Vitamin D3 receptor (Homo sapiens) (UniProt P11473)
Assay: Inhibitors of the vitamin D receptor (VDR): qHTS
Conditions: VDR-SRC2-3 peptide fluorescence polarization, 2 h; max response, negative = inhibition: active compounds read low
Summary of the method: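 After 23 nl compound addition and a short centrifugation, plates sat for 2 hours at ambient temperature; polarization of fluorescence then indicated loss of VDR binding to peptide SRC2-3.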
% is set by controls: 0 for no effect and ±100 for the full control effect; potency is the fitted concentration of half-maximal effect.

| Structure (SMILES) | Potency | max response, negative = inhibition |
| --- | --- | --- |
| COc1ccc(-c2nc3ccccn3c2NC2CCCCC2)cc1SC1CCCCC1 | inconclusive: 89.1 µM [inhibitor, partial curve, poor fit] |  |
| CC(=O)Oc1ccc(/C=C2/CCc3ccccc3C2=O)cc1 | inconclusive: 56.2 µM [inhibitor, partial curve, poor fit] |  |
| COc1ccc(-n2c(-c3ccc(Cl)cc3)cc3c2CC(C)(C)CC3=O)c(OC)c1 |  | inactive: 22.3% |
| COc1ccc(-c2cc(-c3ccccc3)nc3c2COc2ccc(Cl)cc2-3)cc1 | inconclusive: 100 µM [inhibitor, single point] |  |
| COC(=O)CC1C(=O)NCCN1C(=O)c1ccc2oc(C(C)C)nc2c1 (configuration not stated) | inconclusive: 28.2 µM [inhibitor, partial curve, poor fit] |  |
| CCN1C(=O)C(O)(c2c(C)[nH]c3ccccc23)c2ccccc21 (configuration not stated) | inconclusive: 10 µM [inhibitor, partial curve, poor fit] |  |
| COc1cccc(/C=C2/C(=O)NN(c3ccc(Br)cc3)C2=O)c1O | inconclusive: 89.1 µM [inhibitor, partial curve] |  |
| N#CC1=C(N)Oc2[nH]c(=S)[nH]c(=O)c2C12C(=O)Nc1ccccc12 (configuration not stated) | active: 44.7 µM |  |
| CCn1c(CSc2nccn2C)nc2cc(C(=O)O)ccc21 | inconclusive: 15.8 µM [inhibitor, full curve, poor fit] |  |
| O=C1OC(c2ccc(F)cc2)=C/C1=C\c1ccc(O)cc1 |  | inactive: -9.99% |
| Cc1cccc(N2C(S)=C(C#N)C(=O)NC23CCCCC3)c1 | active: 44.7 µM |  |
| CC(=O)OC1CC(O)C(C)(C)C2CC(OC(C)=O)[C@]3(C)C(CC[C@@]4(C)C(c5ccoc5)OC(=O)C5OC534)[C@]12C (some centres not stated) | inconclusive: 89.1 µM [inhibitor, single point] |  |
| CCOC(=O)c1cc(-c2ccccc2)sc1N | inconclusive: 79.4 µM [inhibitor, partial curve, poor fit] |  |
| O=C(Nc1cccc2c1C(=O)NC2=O)c1ccc(S(=O)(=O)N2CCCC2)cc1 | inconclusive: 70.8 µM [inhibitor, partial curve, poor fit] |  |
| CCc1ccc(-n2c(C)nc3cc(C(=O)NCc4cccnc4)ccc32)cc1 | inconclusive: 89.1 µM [inhibitor, single point] |  |
| CCCCN(C)C(=O)Cc1c(OC)ccc2cc(Br)ccc12 | active: 22.4 µM |  |
| COc1ccc(C(=O)C(CN2CCCC2)c2ccccc2)cc1 (configuration not stated) | inconclusive: 25.1 µM [inhibitor, full curve] |  |
| O=C(O)CC(Cc1ccc(Cl)cc1)C(=O)NCC12CC3CC(CC(C3)C1)C2 (configuration not stated) | inconclusive: 100 µM [inhibitor, single point] |  |
| Cc1cccc(-n2ncc3c(N(CCO)CCO)ncnc32)c1 |  | inactive: -4.48% |
| COc1ccc(CCNc2nc(C)c(C(C)=O)s2)cc1OC | active: 39.8 µM |  |
| Cc1ccc(NC(=O)NCCc2c(C)nn(C)c2C)c(Cl)c1 |  | inactive: 8.61% |
| Cc1nnc2c3ccccc3ccn12 | inconclusive: 89.1 µM [inhibitor, single point] |  |
| CCC(=O)NC(c1cc(Cl)c2ccccc2c1O)C1CC1 (configuration not stated) |  | inactive: -5.72% |

| Structure (SMILES) | Potency | max response, negative = inhibition |
| --- | --- | --- |
| Cc1cccc(C)c1-n1c(C)cc(/C=N/NC(N)=S)c1C | inconclusive: 100 µM [inhibitor, single point] |  |
| CC1=C(C(=O)Nc2ccc(C)cc2)C(c2ccccc2Cl)n2nnnc2N1 (configuration not stated) | inconclusive: 44.7 µM [inhibitor, partial curve, poor fit] |  |
| CCCCN(C)CCCNC(=O)CCn1nc(-c2ccccc2)ccc1=O | inconclusive: 35.5 µM [inhibitor, partial curve] |  |
| C[C@]1(OC(=O)/C=C\c2ccccc2)C[C@@H](O)[C@@]2(O)C=CO[C@@H](O[C@H]3O[C@@H](CO)[C@@H](O)[C@@H](O)[C@@H]3O)[C@H]21 |  | inactive: 9.34% |
| CC(=O)NCc1ccc(S(=O)(=O)N2CCCN(C)CC2)cc1 | inconclusive: 22.4 µM [inhibitor, partial curve] |  |
| O=c1[nH]c(/C=C/c2ccc([N+](=O)[O-])cc2)c([N+](=O)[O-])c(=O)[nH]1 | inconclusive: 25.1 µM [inhibitor, full curve, poor fit] |  |
| Oc1cccc(/C=N/Nc2cc(N3CCCC3)nc(N3CCCC3)n2)c1 | inconclusive: 56.2 µM [inhibitor, single point] |  |
| CC(Sc1ccccc1)C(=O)NCC(c1ccco1)N1CCCCC1 (configuration not stated) |  | inactive: -9.12% |
| COCCn1nnnc1CN1CCC(C)CC1 |  | inactive: -14.7% |
| COc1ccc(-c2nnn(CC(=O)N(CC(=O)NC3CCCC3)c3ccccc3)n2)cc1OC | active: 79.4 µM |  |
| CN(C)c1ccc(C(=S)NCc2ccco2)cc1 | inconclusive: 79.4 µM [inhibitor, partial curve, poor fit] |  |
| CCC(=O)N1c2ccc(S(=O)(=O)CCC(=O)NCc3ccc(OC)cc3)cc2CC1C (configuration not stated) | inconclusive: 56.2 µM [inhibitor, partial curve, poor fit] |  |
| Cc1cccc(Nc2c([N+](=O)[O-])c(=O)n(C)c3ccccc23)c1 | inconclusive: 79.4 µM [inhibitor, partial curve, poor fit] |  |
| c1cc2c(cc1CNc1ccc(N3CCOCC3)cc1)OCO2 | inconclusive: 79.4 µM [inhibitor, partial curve, poor fit] |  |
| O=C(/C=C/c1ccc(Cl)cc1)c1ccc([N+](=O)[O-])o1 | active: 11.2 µM |  |
| COc1cc2nc(N(CCN(C)C)C(=O)c3ccc(S(=O)(=O)N(C)CC4CCCO4)cc3)sc2cc1OC (configuration not stated) |  | inactive: -15.5% |
| CCC(Oc1cccc(C)c1)C(=O)Nc1ccccc1C(=O)N1CCOCC1 (configuration not stated) | inconclusive: 70.8 µM [inhibitor, partial curve] |  |
| Cc1nc([N+](=O)[O-])c(Br)n1CC(=O)c1ccc(Br)cc1 | inconclusive: 35.5 µM [inhibitor, partial curve] |  |
| CCCc1cc(=O)[nH]c(SCC(=O)c2c[nH]c3ccccc23)n1 | inconclusive: 28.2 µM [inhibitor, single point] |  |
| C=CCN1C=C2C(=O)C(C)(OC(=O)CCC(=O)OC)C(=O)C(Br)=C2C=C1c1ccc(OC)cc1 (configuration not stated) | inconclusive: 89.1 µM [inhibitor, single point] |  |
| COC(=O)c1cc(NC(=O)Cc2ccc(OC)c(OC)c2)cc(C(=O)OC)c1 | inconclusive: 44.7 µM [inhibitor, partial curve] |  |
| CCOc1ccc2nc(/N=C/c3c(C)[nH]n(-c4ccccc4)c3=O)sc2c1 |  | inactive: -8.89% |
| CCCC(C)c1nnc(NC(=O)CCS(=O)(=O)Cc2ccccc2)s1 (configuration not stated) | inconclusive: 70.8 µM [inhibitor, partial curve] |  |

| Structure (SMILES) | Potency | max response, negative = inhibition |
| --- | --- | --- |
| COc1cccc(NC(=O)CSc2nc(=O)[nH]c3c2CCCC3)c1 |  | inactive: -6.61% |
| COc1cc2c(C(=O)O)c(C)n(-c3ccccc3)c2c2ccccc12 | inconclusive: 12.6 µM [inhibitor, single point] |  |
| O=C(Cc1c(C(=O)O)[nH]c2ccc(Cl)cc12)Nc1ccc2c(c1)OCCO2 | inconclusive: 100 µM [inhibitor, single point] |  |
| c1csc(CNc2ncncc2-c2ccoc2)c1 | active: 50.1 µM |  |
| CC(=O)OCC=C1CCC2C3CCC4=CC(=O)CCC4(C)C3C(O)CC12C (configuration not stated) | inconclusive: 8.91 µM [inhibitor, partial curve, poor fit] |  |
| O=[N+]([O-])c1cc([N+](=O)[O-])c2cc3ccccc3nc2c1 | inconclusive: 79.4 µM [inhibitor, single point] |  |
| CCn1c2ccccc2c2cc(Nc3cc(C)nc4ncnn34)ccc21 | inconclusive: 89.1 µM [inhibitor, partial curve, poor fit] |  |
| CCCCN=Cc1sc2ccc(OCC)cc2c1O | inconclusive: 39.8 µM [inhibitor, single point] |  |
| CS(=O)(=O)N(CC(=O)N1CCN(c2ccccc2)CC1)C1CCCCC1 | inconclusive: 28.2 µM [inhibitor, full curve] |  |
| O=C(/C=C/c1ccc2c(c1)OCCO2)c1ccccc1 | active: 50.1 µM |  |
| COc1cc(/C=C/C(=O)O)cc(S(=O)(=O)N2CCc3ccccc3C2)c1OC |  | inactive: 0.111% |
| COC(=O)C(CCSC)NC(=O)C1CCN(c2ncnc3c2nc2n3CCCCC2)CC1 (configuration not stated) |  | inactive: 15.8% |
| CCCS(=O)(=O)c1cn2cccc(N)c2c1S(=O)(=O)CCC | inconclusive: 89.1 µM [inhibitor, single point] |  |
| CCOC(=O)c1c(CNCCN(CC)CC)n(C)c2cc(Br)c(OC)cc12 |  | inactive: -14.6% |
| CN(C)CCC(=O)N1C/C(=C/c2ccccc2)C(=O)/C(=C\c2ccccc2)C1 | inconclusive: 50.1 µM [inhibitor, partial curve, poor fit] |  |
| COc1ccc(C(=O)/C=C/C(=O)N(CC(=O)NC2CCCCC2)Cc2ccc(F)cc2)c(O)c1 | active: 79.4 µM |  |
| CCc1ccccc1N1CC(c2nc3ccccc3n2CCCOc2ccc(Cl)cc2)CC1=O (configuration not stated) |  | inactive: -0.472% |
| CCn1nc(NC(=O)Cc2ccc(OC)cc2)c2cc3cc(C)ccc3nc21 |  | inactive: -10.8% |
| CCc1ccc(/C=N/n2c(C3CCCCC3)n[nH]c2=S)cc1 | inconclusive: 89.1 µM [inhibitor, single point] |  |
| Cc1c(N(C)S(=O)(=O)c2cccc(C(=O)NC(C)C)c2)c(=O)n(-c2ccccc2)n1C | active: 79.4 µM |  |
| COc1ccccc1-n1cnnc1SC(C)C(=O)NCC1CCCO1 (configuration not stated) |  | inactive: 13.4% |

Compounds from the list above containing fluorine:

| Structure (SMILES) | Potency | max response, negative = inhibition |
| --- | --- | --- |
| O=C1OC(c2ccc(F)cc2)=C/C1=C\c1ccc(O)cc1 |  | inactive: -9.99% |
| COc1ccc(C(=O)/C=C/C(=O)N(CC(=O)NC2CCCCC2)Cc2ccc(F)cc2)c(O)c1 | active: 79.4 µM |  |
